The other results are listed elsewhere or left out.
B1: il2ra_site1_1z92_sap_12_mot_HHH_b1_08139_000000022_0001_43_56_H_._HHH_b2_05798_af2_0001_0000300023_0000001_0_0001_af2pred_0001_af2pred (protein)
chain: SSSSDARKEALELFERANEAVKNGNPEEARELLERAEELAEEGGSPSALRSIRAALRQLKSSSSS
B2: il2ra_site1_1z92_sap_12_mot_HHH_b2_05238_af2_000000252_0001_38_55_H_._HHH_b2_00948_0001_0000400025_0000001_0_0001_af2pred_0001_af2pred (protein)
chain: SSSSSSIEEVSRFLFEQLKRKLELGNERAVRRISKIAREVAELSKDEELEELVEEAERFLSSSSS
B3: il2ra_site1_2b5i_sap_10_mot_HHH_b1_01495_af2_000000272_0001_42_56_H_._HHH_b1_06534_0001_0000200011_0000001_0_0001_af2pred_dldesign_0_af2pred (protein)
chain: SSSSSPEAEKIYEEAKKKAEELKKAGKPREALKVLEEAYKEVSKLDDDELEDKLHELAKEISSSS
B4: il2ra_site1_3nfp_normal_mot_HHH_b2_08362_000000025_0001_23_39_H_._0bad3e1dd0b580ac51794e340135530b_0001_0001_0000200035_0000001_0_af2pred_0001_af2pred (protein)
chain: DESRELKEAARLLPPELNRELQRALHLLIKLGDNELLRKLVELALLLAQGDPEAEEEFEEVIRIP
B5: il2ra_site1_3nfp_sap_8_mot_d8099cd8ef6a59b9c03de2010570d688_0001_af2_000000259_0001_37_51_H_._HHH_b2_05910_0001_0000100005_0000001_0_0001 (protein)
chain: SAEEFVKRAKELVPPELQELLERALELALKRQDPKLARLLIKAVAAIQQGDPEKAEEVLKELEER
B6: il2ra_site1_3nfp_normal_mot_HHH_b2_02886_000000287_0001_1_17_H_._ac5a625a7d57d61210602084a13af12d_0001_0001_0000300032_0000001_0_af2pred_0001_af2pred_1_swapped (protein)
chain: TEELTEEILELLRKDPLEALRLFKELLRKKGIPPEEAKKLAEEVARLAAKLPPEELEEFIRELLR
B7: il2ra_site2_2erj_sap_20_mot_HHH_b2_00789_000000198_0001_40_54_H_._HHH_b2_06681_0001_0000100009_0000001_0_0001 (protein)
chain: SSSSDEEIERVSELLREAVHLSQNGNPEEAERVLEEALRIAEESGDPELREAVRLMLEFLSSSSS
B8: il2ra_site1_3nfp_sap_8_mot_HHH_b1_04964_af2_000000227_0001_40_57_H_._81d5ae1f4baf8c7fe012e9a1203c0b55_0001_0001_0000600026_0000001_0_0001 (protein)
chain: SSSSNAAERWTEEAERLAKELGDEELVEELRELLEEAVKKGDMEVARELIKVIAKVQLKARSSSS
B9: il2ra_site1_1z92_sap_25_mot_9bc32e39fd96e64286323717145257bc_0001_000000091_0001_37_51_H_._25e4e8523bb898988f824d7176892a6f_0001_0001_0000300034_0000001_0_0001 (protein)
chain: SVEEIEEEAKERNDPLLFEAAHDLAVALKLGIPPENVEKALRRIAKRRNDPELEEAVELAIRLVR
B10: il2ra_site1_2b5i_sap_12_mot_HHH_b2_08159_000000245_0001_1_21_H_._HHH_b2_07085_af2_0001_0000200012_0000001_0_0001_af2pred_dldesign_0_af2pred (protein)
chain: SSSSSSPKLKEIERLIEEAKKEKNLRKALELLEKAYKLAGEIDDDELLDEIEKLAKELLSSSSSS
B11: il2ra_site2_2erj_sap_16_mot_HHH_b1_01799_af2_000000125_0001_1_17_H_._HHH_b2_07914_0001_0000100001_0000001_0_0001_af2pred_0001_1_af2pred_swapped (protein)
chain: SSSSDEEIEEIIERLVKEYNLSEEDKKYLQASARLAEEAGANDELIRRLLERQARWAREGSSSSS
B12: il2ra_site2_3nfp_normal_mot_HHH_b2_03816_000000163_0001_40_54_H_._d2b7c2924102c02e5b5e195002b33380_0001_1_0001_0000400033_0000001_0 (protein)
chain: SEEEIRQAIELARELGDPALELLLHSLLYQAKKDPEIEKEAEEVAELVLSGDPDKAFELAARLHH
B13: il2ra_site2_3nfp_sap_27_mot_HHH_b1_04032_000000208_0001_43_56_H_._69a32af0339682088b0ab7bc0c544914_0001_1_0001_0000200006_0000001_0_0001_af2pred_0001_1_af2pred_ … (protein)
chain: SSSSSSEEFEEILKKALRLARELGDPEAFLRILELAERYLKEGDPRIEEELRKLLEELERSSSSS
B14: il2ra_site2_3nfp_sap_29_mot_HHH_b1_00202_af2_000000102_0001_1_19_H_._HHH_b1_03184_0001_0000300017_0000001_0_0001 (protein)
chain: SSSSDKAEEYIRIALELAKEAIEAGDEESARRLLHVAIAAARDRNDEEILEELERLLEELSSSSS
B15: il2ra_site2_3nfp_normal_mot_HHH_b2_07083_af2_000000083_0001_42_56_H_._HHH_b1_04834_0001_0000100003_0000001_1_af2pred_0001_af2pred_1 (protein)
chain: SSSSDIEERVRELLRQLEEALEEGDEELFEKLAIEVSQLAYEANDPELFAKVAELKIKFGSSSSS
B16: il2ra_site2_2erj_sap_20_mot_HHH_b2_02430_000000062_0001_23_40_H_._HHH_eva_0415_0001_0000900158_0000001_0_0001 (protein)
chain: SSSSDEELHELFRLAVEVLALLANGNPEEAKKVTEELEELIKEQNSEAAEKLLESLEKSFRSSSS
B17: il2ra_site1_2b5i_sap_13_mot_HHH_b2_07160_000000135_0001_1_14_H_._HHH_b1_04051_0001_0000500030_0000001_1_0001_af2pred_dldesign_0_af2pred (protein)
chain: SSSSSLGRRRRELLERADKAFKAEDYELLKELLKEVKELVEKTKRKSDKAILKLIEEALEESSSS
B18: il2ra_site2_2erj_sap_25_mot_28c41ff5ff93e4e540bfc34eab8aed47_0001_af2_000000076_0001_1_17_H_._HHH_b1_01063_0001_0000200007_0000001_0_0001_af2pred_0001_1_af2pred … (protein)
chain: SSSSSSEIEEFVEELVEKFNLSEEQEKQLRLSAKLAKEAGYSDEFVRKWLEIIARLAHESSSSSS

Target: il2ra, P01589
Experiment: yeast display titration

Binder | apparent Kd
B1 | inactive: no binding seen
B2 | inactive: no binding seen
B3 | inactive: no binding seen
B4 | inactive: no binding seen
B5 | inactive: no binding seen
B6 | inactive: no binding seen
B7 | inactive: no binding seen
B8 | inactive: no binding seen
B9 | inactive: no binding seen
B10 | inactive: no binding seen
B11 | inactive: no binding seen
B12 | inactive: no binding seen
B13 | inactive: no binding seen
B14 | inactive: no binding seen
B15 | inactive: no binding seen
B16 | inactive: no binding seen
B17 | inactive: > 487 nM
B18 | inactive: no binding seen

2 entries drawn at random from the list so far, as already listed:
Binder | apparent Kd
B16 | inactive: no binding seen
B12 | inactive: no binding seen
